From patent US20110212475A1, “Fluorescently Or Spin-Labeled Kinases For Rapid Screening And Identification Of Novel Kinase Inhibitor Scaffolds” (priority 2008, published 2011)
Some of these results come from one statement about several compounds together.

Molecular target: T1, cSrc (Gallus gallus, UniProt P00523, C277S/C483S/C496S/L407C)
T1 construct: The chicken cSrc gene (residues 251-533); His tag with PreScission site (N, cleaved yes); made in house; host or cells: E. coli BL21(DE3) Codon+RIL
Test: acrylodan-labeled cSrc fluorescence binding assay
Set-up: species or system chicken
Settings: 384-well

CC(C)(C)c1cc(NC(=O)Nc2cccc3ccccc23)n(-c2cccc([N+](=O)[O-])c2)n1 [6, RL35]
detection in compound screen (R=λ445/λ475) (10 μM): detected
detection in compound screen (R=λ445/λ475) (50 μM): detected
